Source: publication doi:10.1101/296194
These are yes or no findings as the source states them, for the method shown. In cells and extracts the contact can be indirect. Tags and fused reporters may be left off the sequences shown.

Sequences of proteins named here, by UniProt entry; tags and fusion partners are left off.
UniProt P00519: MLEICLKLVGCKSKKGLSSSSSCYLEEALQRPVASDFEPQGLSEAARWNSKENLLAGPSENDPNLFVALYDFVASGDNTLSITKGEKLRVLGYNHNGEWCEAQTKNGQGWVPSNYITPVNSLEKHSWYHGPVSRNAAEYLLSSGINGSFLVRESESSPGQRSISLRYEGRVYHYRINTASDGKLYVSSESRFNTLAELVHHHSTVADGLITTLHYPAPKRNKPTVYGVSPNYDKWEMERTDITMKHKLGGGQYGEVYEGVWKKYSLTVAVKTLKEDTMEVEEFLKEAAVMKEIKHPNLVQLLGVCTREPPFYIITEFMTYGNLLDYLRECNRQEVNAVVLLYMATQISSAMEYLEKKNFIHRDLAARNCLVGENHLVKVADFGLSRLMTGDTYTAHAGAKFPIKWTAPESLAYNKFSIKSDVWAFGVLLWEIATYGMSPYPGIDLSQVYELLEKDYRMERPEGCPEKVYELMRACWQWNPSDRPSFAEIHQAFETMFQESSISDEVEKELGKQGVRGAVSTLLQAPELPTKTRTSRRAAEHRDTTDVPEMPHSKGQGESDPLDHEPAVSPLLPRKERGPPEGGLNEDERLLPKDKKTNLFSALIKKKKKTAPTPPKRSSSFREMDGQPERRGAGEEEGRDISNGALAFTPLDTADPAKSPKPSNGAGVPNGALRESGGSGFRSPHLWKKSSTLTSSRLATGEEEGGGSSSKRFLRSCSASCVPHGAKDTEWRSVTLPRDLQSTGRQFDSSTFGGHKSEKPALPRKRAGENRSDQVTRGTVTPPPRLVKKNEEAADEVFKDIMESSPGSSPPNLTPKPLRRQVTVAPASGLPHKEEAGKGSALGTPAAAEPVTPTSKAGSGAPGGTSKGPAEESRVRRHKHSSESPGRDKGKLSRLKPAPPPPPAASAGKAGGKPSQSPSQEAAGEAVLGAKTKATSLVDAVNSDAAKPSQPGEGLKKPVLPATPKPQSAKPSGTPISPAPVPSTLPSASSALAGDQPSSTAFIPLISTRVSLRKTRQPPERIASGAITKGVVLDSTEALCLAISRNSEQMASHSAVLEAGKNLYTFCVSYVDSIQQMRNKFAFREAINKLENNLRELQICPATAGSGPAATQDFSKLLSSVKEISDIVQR

Molecular target: T1, Flag-PTPN18-WT (UniProt Q99952)
T1 sequence: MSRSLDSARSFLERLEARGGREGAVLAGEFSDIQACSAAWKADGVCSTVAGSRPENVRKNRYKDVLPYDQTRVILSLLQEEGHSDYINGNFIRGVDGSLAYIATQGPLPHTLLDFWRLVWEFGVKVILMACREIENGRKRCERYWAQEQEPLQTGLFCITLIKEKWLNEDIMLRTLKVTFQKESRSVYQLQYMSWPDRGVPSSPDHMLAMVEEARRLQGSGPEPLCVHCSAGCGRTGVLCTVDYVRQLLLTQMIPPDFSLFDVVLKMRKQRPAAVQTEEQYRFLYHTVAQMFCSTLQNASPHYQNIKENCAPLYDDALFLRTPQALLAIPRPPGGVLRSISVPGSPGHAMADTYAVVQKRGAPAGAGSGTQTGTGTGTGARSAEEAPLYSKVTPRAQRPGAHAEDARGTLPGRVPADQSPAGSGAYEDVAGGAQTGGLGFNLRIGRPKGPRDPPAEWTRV
Experiment: co-IP

binding: no binding
Substance: ABL1 (from UniProt P00519 1-1130)
